The text below walks through data of publication PMC8906905.

By UniProt entry, the sequences of proteins in these tests, tags left out. Where a name states a change or a piece, a line headed by the entry shows the natural chain unless it says otherwise.
UniProt P05556: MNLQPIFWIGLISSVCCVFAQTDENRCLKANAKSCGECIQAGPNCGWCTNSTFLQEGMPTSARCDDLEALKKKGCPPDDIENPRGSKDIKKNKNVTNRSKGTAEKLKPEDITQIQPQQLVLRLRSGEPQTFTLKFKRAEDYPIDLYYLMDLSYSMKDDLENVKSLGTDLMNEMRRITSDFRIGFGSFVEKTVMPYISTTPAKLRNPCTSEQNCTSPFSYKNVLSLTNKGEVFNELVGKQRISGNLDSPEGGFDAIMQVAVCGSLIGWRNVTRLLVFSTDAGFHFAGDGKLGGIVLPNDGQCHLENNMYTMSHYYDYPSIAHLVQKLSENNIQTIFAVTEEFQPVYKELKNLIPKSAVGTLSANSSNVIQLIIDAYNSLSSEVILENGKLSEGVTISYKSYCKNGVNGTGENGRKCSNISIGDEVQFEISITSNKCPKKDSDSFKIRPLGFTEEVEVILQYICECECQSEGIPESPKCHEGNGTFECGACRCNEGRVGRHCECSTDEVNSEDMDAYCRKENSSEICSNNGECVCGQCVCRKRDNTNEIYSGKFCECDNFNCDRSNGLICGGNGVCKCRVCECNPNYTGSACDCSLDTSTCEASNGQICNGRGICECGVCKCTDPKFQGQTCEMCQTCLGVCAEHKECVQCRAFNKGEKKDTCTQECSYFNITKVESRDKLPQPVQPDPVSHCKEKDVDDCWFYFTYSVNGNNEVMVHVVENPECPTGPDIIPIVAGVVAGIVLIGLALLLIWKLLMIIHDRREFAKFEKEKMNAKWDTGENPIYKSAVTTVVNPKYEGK

These are yes or no findings as the source states them, for the method shown. In cells and extracts the contact can be indirect. Some entries that bind do so weakly or less than the wild type. Where a sequence is shown, tags or fusion partners need not be part of it.

For the experiment, the target named is T1, FLAG-tagged Tspan9 (tetraspanin-9), stably expressed in U2OS cells (human) (UniProt O75954).
T1 sequence: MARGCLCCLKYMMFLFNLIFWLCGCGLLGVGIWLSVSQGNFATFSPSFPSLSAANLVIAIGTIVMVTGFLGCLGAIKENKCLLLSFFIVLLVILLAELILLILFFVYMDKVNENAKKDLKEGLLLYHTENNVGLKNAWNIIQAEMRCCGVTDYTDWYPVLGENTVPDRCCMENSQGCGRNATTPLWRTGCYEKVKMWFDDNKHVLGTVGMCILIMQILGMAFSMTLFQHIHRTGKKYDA
Briefly: co-IP; RIPA lysates of U2OS cells expressing FLAG-tagged Tspan9 or control constructs, anti-Flag M2 agarose beads, 4°C for 2 h, washed three times with PBS, Western blotting. Background: A western blot detects proteins with antibodies after separation by electrophoresis.

With “integrin β1, endogenous in U2OS cells (from UniProt P05556 21-798) (receptor)”, the binding entry was “binds”.
